These are yes or no findings as the source states them, for the method shown. Binding seen in cells or lysates may run through a third protein. Some binding calls cover weakened binding; strength is not graded here. Sequences can lack the tags named with a protein.

The chains behind the UniProt entries cited, without tags or fusion partners. Where a name states a change or a piece, a line headed by the entry shows the natural chain unless it says otherwise. Residues count along the entry.
UniProt P10909, residues 23-449: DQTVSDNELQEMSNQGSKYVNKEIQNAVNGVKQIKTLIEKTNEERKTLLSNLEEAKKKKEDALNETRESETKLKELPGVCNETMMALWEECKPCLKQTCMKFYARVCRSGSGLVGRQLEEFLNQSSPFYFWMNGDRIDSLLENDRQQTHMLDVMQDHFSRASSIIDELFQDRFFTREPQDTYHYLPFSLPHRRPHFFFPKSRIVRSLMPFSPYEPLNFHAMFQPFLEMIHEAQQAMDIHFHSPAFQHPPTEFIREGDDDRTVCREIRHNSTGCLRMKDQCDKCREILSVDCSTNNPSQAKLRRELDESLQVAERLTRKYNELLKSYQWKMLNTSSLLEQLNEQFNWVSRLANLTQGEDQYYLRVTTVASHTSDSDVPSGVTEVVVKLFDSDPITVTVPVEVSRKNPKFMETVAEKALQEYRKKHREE

The target in assay [1] is T1, TAK1-Flag (UniProt O43318).
T1 sequence: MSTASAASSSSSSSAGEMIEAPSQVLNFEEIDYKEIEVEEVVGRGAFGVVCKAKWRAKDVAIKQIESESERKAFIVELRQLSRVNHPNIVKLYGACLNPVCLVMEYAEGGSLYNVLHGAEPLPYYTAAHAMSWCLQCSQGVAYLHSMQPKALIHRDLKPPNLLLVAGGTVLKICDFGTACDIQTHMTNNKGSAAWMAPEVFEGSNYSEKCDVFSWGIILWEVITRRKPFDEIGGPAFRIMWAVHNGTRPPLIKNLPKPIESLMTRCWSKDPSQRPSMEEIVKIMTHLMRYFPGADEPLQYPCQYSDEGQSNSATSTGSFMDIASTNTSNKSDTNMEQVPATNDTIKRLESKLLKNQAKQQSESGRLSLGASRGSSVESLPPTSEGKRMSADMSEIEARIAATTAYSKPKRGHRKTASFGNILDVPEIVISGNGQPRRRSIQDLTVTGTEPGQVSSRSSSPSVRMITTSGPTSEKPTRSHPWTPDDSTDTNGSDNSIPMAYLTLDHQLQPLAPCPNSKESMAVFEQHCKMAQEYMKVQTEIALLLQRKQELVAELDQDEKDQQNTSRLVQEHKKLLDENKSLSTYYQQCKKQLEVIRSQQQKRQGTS
The experiment in a line: co-IP; 293T-tet-CLU cells co-transfected with tagged proteins, with or without Dox-induced CLU; IP with Myc or Flag antibody, western blot with tag and CLU antibodies. On the technique in general: In western blotting, separated proteins are transferred to a membrane and probed.

Assay [2] concerns the target CLU-3×Flag (Clusterin, full-length variant sCLU) (UniProt P10909). In words: co-IP; 293T cells co-transfected with CLU-3×Flag and TGFBR1-myc (or its mutant) for 24 h; IP with Flag or with myc antibody, immunoblot with Flag and Myc tag antibodies.
Assay [3] concerns the target T2, TAK1-Luc (pCAG-TAK1-Luc) (UniProt O43318).
T2 sequence: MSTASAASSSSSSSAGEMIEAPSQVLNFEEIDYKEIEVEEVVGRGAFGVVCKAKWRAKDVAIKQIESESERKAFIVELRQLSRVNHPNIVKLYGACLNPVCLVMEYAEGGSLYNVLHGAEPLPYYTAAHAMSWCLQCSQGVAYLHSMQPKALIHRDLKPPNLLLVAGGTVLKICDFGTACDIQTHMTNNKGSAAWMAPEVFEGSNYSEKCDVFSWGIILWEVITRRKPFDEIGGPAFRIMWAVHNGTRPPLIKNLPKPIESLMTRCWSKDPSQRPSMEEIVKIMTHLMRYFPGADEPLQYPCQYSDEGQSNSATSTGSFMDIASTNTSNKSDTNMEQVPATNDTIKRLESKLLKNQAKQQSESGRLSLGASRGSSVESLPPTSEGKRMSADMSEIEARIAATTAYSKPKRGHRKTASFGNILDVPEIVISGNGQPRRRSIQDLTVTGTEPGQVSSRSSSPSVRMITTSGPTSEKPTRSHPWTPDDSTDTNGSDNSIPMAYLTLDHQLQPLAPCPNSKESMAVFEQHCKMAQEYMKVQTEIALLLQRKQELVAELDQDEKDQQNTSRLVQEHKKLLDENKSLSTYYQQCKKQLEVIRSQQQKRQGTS
In words: split reporter; split luciferase halves (C-luc, Nluc) fused to the two proteins; 293T-tet-CLU cells, 250 ng of each plasmid in 24 well plate, 50 ng Renilla vector as transfection control, 1 μg/mL Dox to induce CLU; Dual Luminescent Kit.

For assay [4], the target named is T3, TAB2-Nluc (pCAG-TAB2-Nluc) (UniProt Q9NYJ8).
T3 sequence: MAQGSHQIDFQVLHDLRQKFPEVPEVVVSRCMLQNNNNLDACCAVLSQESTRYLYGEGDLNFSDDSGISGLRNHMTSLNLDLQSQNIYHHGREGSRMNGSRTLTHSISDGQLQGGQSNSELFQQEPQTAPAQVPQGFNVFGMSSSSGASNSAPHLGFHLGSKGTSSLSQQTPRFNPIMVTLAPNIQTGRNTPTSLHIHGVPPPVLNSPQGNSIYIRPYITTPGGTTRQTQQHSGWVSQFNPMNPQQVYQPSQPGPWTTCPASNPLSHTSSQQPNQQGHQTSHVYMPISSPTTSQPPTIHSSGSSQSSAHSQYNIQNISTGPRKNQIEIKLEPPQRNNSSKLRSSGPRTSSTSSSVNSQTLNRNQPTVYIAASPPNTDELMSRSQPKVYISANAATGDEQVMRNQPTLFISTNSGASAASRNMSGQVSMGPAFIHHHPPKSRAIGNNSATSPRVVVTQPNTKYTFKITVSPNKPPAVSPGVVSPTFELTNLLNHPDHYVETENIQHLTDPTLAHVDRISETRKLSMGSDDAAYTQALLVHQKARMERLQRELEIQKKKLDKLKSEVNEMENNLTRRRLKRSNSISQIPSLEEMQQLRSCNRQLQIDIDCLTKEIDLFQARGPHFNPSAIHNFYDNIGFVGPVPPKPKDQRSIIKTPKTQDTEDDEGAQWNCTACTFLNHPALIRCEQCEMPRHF
Described as above.

B1: TGFBR1-myc (receptor, UniProt P36897 34-503)
chain: LQCFCHLCTKDNFTCVTDGLCFVSVTETTDKVIHNSMCIAEIDLIPRDRPFVCAPSSKTGSVTTTYCCNQDHCNKIELPTTVKSSPGLGPVELAAVIAGPVCFVCISLMLMVYICHNRTVIHHRVPNEEDPSLDRPFISEGTTLKDLIYDMTTSGSGSGLPLLVQRTIARTIVLQESIGKGRFGEVWRGKWRGEEVAVKIFSSREERSWFREAEIYQTVMLRHENILGFIAADNKDNGTWTQLWLVSDYHEHGSLFDYLNRYTVTVEGMIKLALSTASGLAHLHMEIVGTQGKPAIAHRDLKSKNILVKKNGTCCIADLGLAVRHDSATDTIDIAPNHRVGTKRYMAPEVLDDSINMKHFESFKRADIYAMGLVFWEIARRCSIGGIHEDYQLPYYDLVPSDPSVEEMRKVVCEQKLRPNIPNRWQSCEALRVMAKIMRECWYANGAARLTALRIKKTLSQLSQQEGIKM
Consider B1, for which the binding result in assay [1] and in assay [2] was “binds” each time.

B2: TGFBR1-C-luc (pCAG-TGFBR1-C-luc) (receptor, UniProt P36897 34-503)
chain: LQCFCHLCTKDNFTCVTDGLCFVSVTETTDKVIHNSMCIAEIDLIPRDRPFVCAPSSKTGSVTTTYCCNQDHCNKIELPTTVKSSPGLGPVELAAVIAGPVCFVCISLMLMVYICHNRTVIHHRVPNEEDPSLDRPFISEGTTLKDLIYDMTTSGSGSGLPLLVQRTIARTIVLQESIGKGRFGEVWRGKWRGEEVAVKIFSSREERSWFREAEIYQTVMLRHENILGFIAADNKDNGTWTQLWLVSDYHEHGSLFDYLNRYTVTVEGMIKLALSTASGLAHLHMEIVGTQGKPAIAHRDLKSKNILVKKNGTCCIADLGLAVRHDSATDTIDIAPNHRVGTKRYMAPEVLDDSINMKHFESFKRADIYAMGLVFWEIARRCSIGGIHEDYQLPYYDLVPSDPSVEEMRKVVCEQKLRPNIPNRWQSCEALRVMAKIMRECWYANGAARLTALRIKKTLSQLSQQEGIKM
Take B2: the binding result in assay [3] is reported as “binds”.

B3: TAK1-CLUc (pCAG-TAK1-CLUc) (enzyme, UniProt O43318 1-606)
chain: MSTASAASSSSSSSAGEMIEAPSQVLNFEEIDYKEIEVEEVVGRGAFGVVCKAKWRAKDVAIKQIESESERKAFIVELRQLSRVNHPNIVKLYGACLNPVCLVMEYAEGGSLYNVLHGAEPLPYYTAAHAMSWCLQCSQGVAYLHSMQPKALIHRDLKPPNLLLVAGGTVLKICDFGTACDIQTHMTNNKGSAAWMAPEVFEGSNYSEKCDVFSWGIILWEVITRRKPFDEIGGPAFRIMWAVHNGTRPPLIKNLPKPIESLMTRCWSKDPSQRPSMEEIVKIMTHLMRYFPGADEPLQYPCQYSDEGQSNSATSTGSFMDIASTNTSNKSDTNMEQVPATNDTIKRLESKLLKNQAKQQSESGRLSLGASRGSSVESLPPTSEGKRMSADMSEIEARIAATTAYSKPKRGHRKTASFGNILDVPEIVISGNGQPRRRSIQDLTVTGTEPGQVSSRSSSPSVRMITTSGPTSEKPTRSHPWTPDDSTDTNGSDNSIPMAYLTLDHQLQPLAPCPNSKESMAVFEQHCKMAQEYMKVQTEIALLLQRKQELVAELDQDEKDQQNTSRLVQEHKKLLDENKSLSTYYQQCKKQLEVIRSQQQKRQGTS
Regarding B3, in assay [4], the binding entry is recorded as “binds”.

The record behind these values is PMC7545994.
